Data: PubChem BioAssay AID1347076 (National Center for Advancing Translational Sciences (NCATS), 2019)
The campaign covered roughly 400,000 compounds. About 13,000 (3.2%) were called active. Inconclusive results, whose numbers are uncertain, are shown with a selection of clear calls. Calls come from the whole dose curve; as a rule, active = well fitted cell-killing curve with a large enough effect; inconclusive = small, poorly fitted or top-dose-only effect, or effect the other way; inactive = flat fitted curve, though single readings scatter. Where the call is inconclusive, the potency comes from a doubtful curve fit.

Assay: qHTS assay for MDR1-selective chemotherapeutics: Primary screen using the drug-selected MDR subline cells KB-V1; note: nearly all actives have a fitted effect of over 60% in size
Conditions: KB-V1 MDR cells viability, CellTiter-Glo, 72 h; activity change, negative = cytotoxicity: at 46.1 µM (top of the series)
Outline: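 Cells of the MDR subline KB-V1 are plated, dosed with compound at multiple concentrations, and incubated 72 h at 37 degrees C; CellTiter-Glo is then added and luminescence read after 10 min.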
% is set by controls: 0 for no effect and ±100 for the full control effect; potency is the fitted concentration of half-maximal effect.

Row | Compound | Potency | activity change, negative = cytotoxicity
1 | Cc1ccc(OCC(=O)N2N=C(C(F)(F)F)CC2(O)C(C)(C)C)cc1C (configuration not stated) | active: 18.4 µM | 
2 | COC(=O)Nc1ccc(S(=O)(=O)N2CCC(C(=O)N3CCC(C)CC3)CC2)cc1 | inconclusive: 25.9 µM [cytotoxic, single point] | 
3 | OC(c1ccccc1)(c1ccccc1)C1CCN(CCCOc2ccc3c(c2)CCCC3)CC1 | active: 20.6 µM | 
4 | CCOc1ccc(CCNC(=O)COC(=O)c2sccc2C)cc1OCC | inconclusive: 11.6 µM [cytotoxic, partial curve, poor fit] | 
5 | CC(C)(C)OC(=O)C(C(=O)OC(C)(C)C)c1ccc(Cl)nn1 | inconclusive: 29.1 µM [rising, single point] | 
6 | N#CC1(c2ccc(NC(=O)c3ccccc3F)cc2)CCCC1 | active: 23.1 µM | 
7 | Cc1cc(=O)oc2cc(OCC(O)CN3CCN(c4ccc(F)cc4)CC3)ccc12 (configuration not stated) |  | inactive: 0%
8 | CCOC(=O)/C=C/C(=O)Nc1cc(S(=O)(=O)Nc2ccc(OC)cc2)ccc1N1CCOCC1 |  | inactive: 1.62%
9 | COc1ccc(NC(=O)OCCn2c([N+](=O)[O-])cnc2C)cc1 |  | inactive: -13.5%
10 | CCC(C)c1ccccc1NC(=O)C(C)OC(=O)CN1C(=O)NC(C)(C)C1=O (configuration not stated) | inconclusive: 7.31 µM [rising, partial curve, poor fit] | 
11 | Cc1ccc(CN2CCSc3ccc(C(=O)NCc4ccco4)cc32)cc1 | inconclusive: 29.1 µM [cytotoxic, single point] | 
12 | O=C(CCN1C(=O)c2ccccc2C1=O)NNC(=O)c1ccc(Cl)cc1Cl | inconclusive: 3.66 µM [rising, partial curve] | 
13 | COc1ccc2nc(NC(=O)C3CCCN3S(=O)(=O)c3ccc(C)cc3)sc2c1 (configuration not stated) | active: 18.4 µM | 
14 | O=C(O)/C=C\C(=O)Nc1ccc(OC(F)F)cc1 | inconclusive: 29.1 µM [rising, single point] | 
15 | O=c1[nH]c2ccccc2nc1Cc1ccc([N+](=O)[O-])cc1 |  | inactive: -1.94%
16 | CCOCCCNCc1cc(Cl)cc(Cl)c1OCC | inconclusive: 18.4 µM [cytotoxic, partial curve, poor fit] | 
17 | O=C(CCNS(=O)(=O)c1ccccc1)N1CCN(c2ccccc2)CC1 | inconclusive: 29.1 µM [cytotoxic, partial curve, poor fit] | 
18 | COc1ccc([N+](=O)[O-])cc1NC(=O)Nc1ccccc1 | inconclusive: 16.4 µM [cytotoxic, single point] | 
19 | Cc1ccc(/C=N/Nc2nc(C)cc(C)n2)cc1 |  | inactive: 2.24%
20 | COC(=O)C1=C(SC)N(c2ccccc2)C(c2ccccc2)CC1=O (configuration not stated) | inconclusive: 18.4 µM [cytotoxic, single point] | 
21 | CN(Cc1ccccc1)C(=O)c1cc(-c2ccc(Br)cc2)on1 | active: 14.6 µM | 
22 | Cc1cccc(OCC(O)CN2CCN(CCN3C(=O)c4cccc5cccc(c45)C3=O)CC2)c1C (configuration not stated) | inconclusive: 2.91 µM [cytotoxic, partial curve, poor fit] | 
23 | Fc1ccc(-c2nnc(-n3nnc4ccccc43)c3ccccc23)cc1 |  | inactive: 3.3%
24 | CCCCN(C(=O)c1cc2ccccc2o1)c1c(N)n(CCCC)c(=O)[nH]c1=O |  | inactive: 19.4%

Record cards, as listed above.
O=c1[nH]c2ccccc2nc1Cc1ccc([N+](=O)[O-])cc1 reads activity change, negative = cytotoxicity: inactive: -1.94%
COC(=O)C1=C(SC)N(c2ccccc2)C(c2ccccc2)CC1=O (configuration not stated) reads Potency: inconclusive: 18.4 µM [cytotoxic, single point]

Carrying on.

Row | Compound | Potency | activity change, negative = cytotoxicity
25 | Cc1ccc(S(=O)(=O)N(C)c2ccc(C(=O)Nc3ccccc3C(=O)N3CCOCC3)cc2)cc1 | inconclusive: 3.66 µM [cytotoxic, partial curve, poor fit] | 
26 | CCN(C(=O)COC(=O)/C=C/c1nc2ccccc2s1)c1c(N)n(Cc2ccccc2)c(=O)[nH]c1=O |  | inactive: 21.5%
27 | Cc1cccc(NC(=O)COC(=O)CN2C(=O)c3ccccc3C2=O)c1 |  | inactive: 26.7%
28 | CC(C)Cn1c2c(c(=O)[nH]c1=O)C(NS(=O)(=O)c1ccc(Cl)cc1)(C(F)(F)F)C(=O)N2 (configuration not stated) | inconclusive: 9.2 µM [rising, partial curve, poor fit] | 
29 | CCN(CC)CC1CN(N=Cc2ccc([N+](=O)[O-])o2)C(=O)O1 (configuration not stated) | inconclusive: 16.4 µM [cytotoxic, single point] | 
30 | CCCN(CCC)CCCOC(=O)c1ccc(Cl)cc1Cl |  | inactive: 9.46%
31 | COc1ccc(OC)c(-c2cc(C(=O)Nc3cnn(Cc4ccc(Cl)cc4Cl)c3)no2)c1 | inconclusive: 20.6 µM [cytotoxic, single point] | 
32 | NCCCC[C@@H]1NC(=O)c2cc([N+](=O)[O-])cc(F)c2NCCCC[C@@H](C(N)=O)NC(=O)[C@H](CCC(N)=O)NC1=O | inconclusive: 16.4 µM [rising, single point] | 
33 | CCC(C(=O)c1ccc2ncccc2c1)c1ccccc1 (configuration not stated) | inconclusive: 18.4 µM [cytotoxic, single point] | 
34 | CCc1ccc(-c2[nH]nc3nc(-c4ccc(OC)cc4)cc(C(=O)NCCc4ccc(OC)c(OC)c4)c23)cc1 | inconclusive: 29.1 µM [cytotoxic, single point] | 
35 | O=C(CC1SC(=Nc2ccccc2)N(Cc2ccccn2)C1=O)Nc1ccc(Br)cc1 (configuration not stated) | inconclusive: 9.2 µM [cytotoxic, partial curve] | 
36 | O=C(O)c1ccccc1-c1nc2ccccc2n1-c1ccccc1 | inconclusive: 25.9 µM [rising, single point] | 
37 | Nc1nc(CN2CCN(c3ccccc3)CC2)nc(N2CCCc3ccccc32)n1 | inconclusive: 25.9 µM [cytotoxic, single point] | 
38 | Oc1ccc(/C=N/Nc2ccc(Cl)nn2)cc1O |  | inactive: -1.96%
39 | O=C(NCC1CCCO1)c1ccc(COc2ccc(Cl)cc2)cc1 (configuration not stated) | inconclusive: 20.6 µM [cytotoxic, single point] | 
40 | COC(=O)/C(=N\Nc1ccc(Cl)cc1)Sc1nnc(-c2ccc(OC)cc2)n1C |  | inactive: -24.9%
41 | Cc1ccccc1OCC(=O)Nc1cc(-c2cccc(Br)c2)nn1-c1ccccc1 | inconclusive: 32.6 µM [cytotoxic, single point] | 
42 | Cn1c(/C(C#N)=C/c2ccc(O)cc2)nc2ccccc21 |  | inactive: -1.31%
43 | Cc1cccc(C)c1-n1nnnc1C(c1ccnc2ccccc12)N(CCN(C)C)Cc1ccccc1 (configuration not stated) | inconclusive: 6.51 µM [cytotoxic, partial curve] | 
44 | COc1ccccc1NS(=O)(=O)c1cccc(C(=O)N2CCCCCCC2)c1 | active: 16.4 µM | 
45 | O=C(c1cccc(Cl)c1)N1CCN(CCc2ccccn2)CC1 |  | inactive: -10.2%
46 | COc1ccc(CCN2C(=O)CC(NNC(=O)c3ccc(F)cc3)C2=O)cc1OC (configuration not stated) |  | inconclusive: -93.7%
47 | CCOc1ccc(NC(=O)Cn2nc(-c3ccncc3)ccc2=O)cc1 |  | inactive: 12.9%
48 | CCOC(=O)N/N=C/c1cn(Cc2ccc(Cl)cc2)c2ccccc12 | inconclusive: 29.1 µM [cytotoxic, single point] | 

Row | Compound | Potency | activity change, negative = cytotoxicity
49 | Cc1cccc(NC(=O)c2ccccc2SCc2ccc(F)cc2)n1 | active: 20.6 µM | 
50 | COc1cc2c(cc1OC)CN(C(=O)CSc1nc(N)c(C#N)cc1C#N)CC2 | inconclusive: 29.1 µM [cytotoxic, single point] | 
51 | CC1CCCC(NC(=O)COC(=O)/C=C/c2ccco2)C1C (configuration not stated) | inconclusive: 29.1 µM [rising, single point] | 
52 | COc1cc2ccccc2cc1C(=O)Nc1ccc(C)cn1 |  | inactive: -4.5%
53 | CCOC(=O)/C=c1\s/c(=C\c2c(OC)ccc3ccccc23)c(=O)n1CC(=O)NCC1CCCO1 (configuration not stated) | active: 2.31 µM | 
54 | CCOc1ccc(-c2nc(CSc3nnc(N)s3)cs2)cc1OC | inconclusive: 20.6 µM [cytotoxic, partial curve] | 
55 | Cc1c(NC(=O)CN2C(=O)NC(C)(c3ccc(Cl)cc3)C2=O)c(=O)n(-c2ccccc2)n1C (configuration not stated) | inconclusive: 8.2 µM [rising, partial curve, poor fit] | 
56 | O=C(CC(=O)N/N=C/c1ccccc1)NCc1ccccc1 | inconclusive: 29.1 µM [rising, single point] | 
57 | Cc1ccc(S(=O)(=O)N2CCCCC2)cc1NC(=O)c1ccco1 |  | inactive: -11.2%
58 | Cc1cccc(CS(=O)(=O)c2nnc([C@H](Cc3ccccc3)NC(=O)OC(C)(C)C)o2)c1 | inconclusive: 25.9 µM [cytotoxic, single point] | 
59 | O=c1cc(-c2ccccc2)[nH]c2cc(Cl)ccc12 | inconclusive: 2.31 µM [cytotoxic, full curve] | 
60 | CCOc1ccc(OCC)c(NC(=O)CN2CCN(c3cc(C)ccc3C)CC2)c1 | inconclusive: 20.6 µM [cytotoxic, single point] | 
61 | O=C(CN1CCN(c2ccccc2O)CC1)Nc1ccc([N+](=O)[O-])cc1Br | inconclusive: 18.4 µM [cytotoxic, single point] | 
62 | CCC(=O)Nc1cccc(NC(=S)NC(=O)c2cc3ccccc3o2)c1 | inconclusive: 1.46 µM [cytotoxic, full curve] | 
63 | COc1ccc(OC)c(NC(=O)CCCC(=O)NC2CCCCC2)c1 | inconclusive: 2.91 µM [cytotoxic, partial curve, poor fit] | 
64 | CCC1NC(=O)c2cccnc2-n2c1nc1cc(C)cc(C)c1c2=O (configuration not stated) |  | inactive: 0%
65 | O=C(NC(=S)N1CCCC(O)C1)c1ccco1 (configuration not stated) |  | inactive: 15.9%
66 | COc1ccc(-n2ccn(CC(=O)Nc3ccccc3OC)c(=O)c2=O)cc1 |  | inactive: 16.9%
67 | O=C(CCN=C1NS(=O)(=O)c2ccccc21)NCc1ccccc1F |  | inactive: 16.9%
68 | O=C(Nc1ccc2oc(-c3cccnc3)nc2c1)c1ccc([N+](=O)[O-])o1 |  | inactive: 0.71%
69 | CCOC(=O)c1ccc(N2CCOCC2)c(NS(=O)(=O)c2ccc(F)cc2)c1 | inconclusive: 10.3 µM [cytotoxic, partial curve, poor fit] | 
70 | CCOC(=O)c1ccc(NC(=O)CN2C(=O)NC3(CCCCCCC3)C2=O)cc1 |  | inactive: -9.84%
71 | COc1ccc2c(c1)c1ncn(Cc3ccc(F)cc3)c(=O)c1n2C |  | inactive: -26%
72 | Cc1c(C=Nc2ccc(S(=O)(=O)CCO)cc2)c(O)[nH]c(=O)c1C#N |  | inconclusive: -31.8% [cytotoxic]
